We go through two substances from paper PMC5573332.

By UniProt entry, the sequences of proteins in these tests, tags left out.
UniProt Q05397: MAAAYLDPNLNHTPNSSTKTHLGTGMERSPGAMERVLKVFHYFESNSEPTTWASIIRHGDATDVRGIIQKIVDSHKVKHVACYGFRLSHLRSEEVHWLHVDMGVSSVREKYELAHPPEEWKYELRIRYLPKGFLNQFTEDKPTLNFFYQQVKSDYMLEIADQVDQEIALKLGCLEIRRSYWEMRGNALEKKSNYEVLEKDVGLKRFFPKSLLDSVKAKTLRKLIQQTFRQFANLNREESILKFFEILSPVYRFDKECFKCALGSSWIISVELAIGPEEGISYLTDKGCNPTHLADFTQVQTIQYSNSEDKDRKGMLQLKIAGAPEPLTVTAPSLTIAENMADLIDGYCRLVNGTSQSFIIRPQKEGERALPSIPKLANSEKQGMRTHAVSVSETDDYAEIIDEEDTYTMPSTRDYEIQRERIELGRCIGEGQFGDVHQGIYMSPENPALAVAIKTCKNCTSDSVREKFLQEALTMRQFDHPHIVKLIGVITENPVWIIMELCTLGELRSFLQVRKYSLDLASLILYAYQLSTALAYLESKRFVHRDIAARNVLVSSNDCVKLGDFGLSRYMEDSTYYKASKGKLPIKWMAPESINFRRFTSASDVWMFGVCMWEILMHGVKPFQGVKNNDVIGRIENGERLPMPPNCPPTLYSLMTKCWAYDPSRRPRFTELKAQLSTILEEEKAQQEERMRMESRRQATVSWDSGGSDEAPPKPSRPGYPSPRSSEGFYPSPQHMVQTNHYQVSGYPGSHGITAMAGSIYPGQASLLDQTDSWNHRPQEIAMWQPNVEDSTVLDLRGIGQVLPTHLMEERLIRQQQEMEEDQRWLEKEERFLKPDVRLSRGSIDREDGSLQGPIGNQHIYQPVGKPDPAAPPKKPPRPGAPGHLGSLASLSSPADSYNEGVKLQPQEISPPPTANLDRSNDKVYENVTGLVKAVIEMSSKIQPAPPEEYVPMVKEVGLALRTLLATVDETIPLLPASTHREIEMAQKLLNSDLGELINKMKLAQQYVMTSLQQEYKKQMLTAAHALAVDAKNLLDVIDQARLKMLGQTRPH
UniProt P49023: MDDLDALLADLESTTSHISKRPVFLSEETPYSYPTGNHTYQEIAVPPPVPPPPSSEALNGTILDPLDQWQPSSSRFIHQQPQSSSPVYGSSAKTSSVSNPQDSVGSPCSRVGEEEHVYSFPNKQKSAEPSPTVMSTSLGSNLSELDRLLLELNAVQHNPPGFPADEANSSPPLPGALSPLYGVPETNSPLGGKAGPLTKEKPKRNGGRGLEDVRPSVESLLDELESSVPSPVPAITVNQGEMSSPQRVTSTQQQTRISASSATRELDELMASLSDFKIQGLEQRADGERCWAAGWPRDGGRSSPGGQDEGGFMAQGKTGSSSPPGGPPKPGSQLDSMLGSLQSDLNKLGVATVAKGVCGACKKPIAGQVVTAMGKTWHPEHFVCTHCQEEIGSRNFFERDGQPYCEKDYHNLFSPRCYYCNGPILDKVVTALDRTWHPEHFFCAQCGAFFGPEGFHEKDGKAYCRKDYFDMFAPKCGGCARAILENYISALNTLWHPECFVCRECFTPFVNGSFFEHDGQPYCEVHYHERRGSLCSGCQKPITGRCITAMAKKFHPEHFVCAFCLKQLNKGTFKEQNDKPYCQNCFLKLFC

One experiment concerns the target T1, FLAG-tagged PKD2.Y87F (UniProt Q9BZL6).
T1 sequence: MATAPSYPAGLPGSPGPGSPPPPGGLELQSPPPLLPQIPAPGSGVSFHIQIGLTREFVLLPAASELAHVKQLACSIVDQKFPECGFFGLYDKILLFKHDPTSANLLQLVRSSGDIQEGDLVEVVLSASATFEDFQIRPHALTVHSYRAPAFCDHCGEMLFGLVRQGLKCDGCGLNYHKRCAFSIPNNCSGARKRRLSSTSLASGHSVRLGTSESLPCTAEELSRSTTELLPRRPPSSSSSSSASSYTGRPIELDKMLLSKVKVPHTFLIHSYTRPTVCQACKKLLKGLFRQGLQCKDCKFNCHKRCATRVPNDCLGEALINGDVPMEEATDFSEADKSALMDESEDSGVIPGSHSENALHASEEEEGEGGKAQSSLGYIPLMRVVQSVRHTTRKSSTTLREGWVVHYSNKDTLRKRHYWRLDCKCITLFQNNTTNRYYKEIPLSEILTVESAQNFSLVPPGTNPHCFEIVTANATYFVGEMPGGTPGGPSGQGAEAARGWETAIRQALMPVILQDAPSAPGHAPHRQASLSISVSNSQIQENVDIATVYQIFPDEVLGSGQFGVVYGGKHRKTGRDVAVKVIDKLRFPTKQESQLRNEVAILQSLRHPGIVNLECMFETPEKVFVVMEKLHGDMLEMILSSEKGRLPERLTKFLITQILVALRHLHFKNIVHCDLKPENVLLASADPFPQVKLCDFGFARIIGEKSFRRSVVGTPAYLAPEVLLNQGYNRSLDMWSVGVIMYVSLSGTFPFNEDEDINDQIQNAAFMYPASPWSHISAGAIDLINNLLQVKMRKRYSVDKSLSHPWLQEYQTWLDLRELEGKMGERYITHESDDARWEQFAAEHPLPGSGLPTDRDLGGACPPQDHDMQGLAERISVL
The experiment is described as follows: co-IP; Hek293T cells co-transfected with FLAG-PKD2 or FLAG-PKD2.Y87F and mCherry-FAK; PKD2 immunoprecipitated (anti-FLAG), blot for FAK; lysis in 50 mM Tris-HCl pH 7.4, 1% Triton X-100, 150 mM NaCl, 5 mM EDTA.

Experiment [1] deals with T2, FLAG-tagged PKD2 (Protein kinase D 2) (UniProt Q9BZL6).
T2 sequence: T1 sequence with F87Y
Described as above.

In experiment [2] the target is T3, PKD2 (immunoprecipitated for the paxillin co-immunoprecipitation) (UniProt Q9BZL6).
T3 sequence: T1 sequence with F87Y
The experiment is described as follows: co-IP; PKD2 immunoprecipitates probed for paxillin (Supplemental Figure S2A).

Where a chain is given by its changes, count along the chain named. No constants are given. Whether binding was seen depends on the method and setting. Binding seen in cells or lysates may run through a third protein. Some entries that bind do so weakly or less than the wild type. For part of these data: Tags and fused reporters may be left off the sequences shown.

Regarding “mCherry-FAK (Focal Adhesion Kinase) (from UniProt Q05397 1-1052) (enzyme)”, the binding result with FLAG-tagged PKD2.Y87F was “no binding”; in experiment [1], “binds”.
Regarding paxillin (from UniProt P49023 1-591), in experiment [2], the binding result is on record as “binds”.
